Results from patent publication US9062026B2, “Fused pyrimidines and substituted quinazolines as inhibitors of p97” (Cleave Biosciences, Inc., priority 2012, dated 2015).
The match of structure and compound is tentative.

Protein sequences, listed by entry. Tags and fused reporters are not part of them.
UniProt P55072, whole entry: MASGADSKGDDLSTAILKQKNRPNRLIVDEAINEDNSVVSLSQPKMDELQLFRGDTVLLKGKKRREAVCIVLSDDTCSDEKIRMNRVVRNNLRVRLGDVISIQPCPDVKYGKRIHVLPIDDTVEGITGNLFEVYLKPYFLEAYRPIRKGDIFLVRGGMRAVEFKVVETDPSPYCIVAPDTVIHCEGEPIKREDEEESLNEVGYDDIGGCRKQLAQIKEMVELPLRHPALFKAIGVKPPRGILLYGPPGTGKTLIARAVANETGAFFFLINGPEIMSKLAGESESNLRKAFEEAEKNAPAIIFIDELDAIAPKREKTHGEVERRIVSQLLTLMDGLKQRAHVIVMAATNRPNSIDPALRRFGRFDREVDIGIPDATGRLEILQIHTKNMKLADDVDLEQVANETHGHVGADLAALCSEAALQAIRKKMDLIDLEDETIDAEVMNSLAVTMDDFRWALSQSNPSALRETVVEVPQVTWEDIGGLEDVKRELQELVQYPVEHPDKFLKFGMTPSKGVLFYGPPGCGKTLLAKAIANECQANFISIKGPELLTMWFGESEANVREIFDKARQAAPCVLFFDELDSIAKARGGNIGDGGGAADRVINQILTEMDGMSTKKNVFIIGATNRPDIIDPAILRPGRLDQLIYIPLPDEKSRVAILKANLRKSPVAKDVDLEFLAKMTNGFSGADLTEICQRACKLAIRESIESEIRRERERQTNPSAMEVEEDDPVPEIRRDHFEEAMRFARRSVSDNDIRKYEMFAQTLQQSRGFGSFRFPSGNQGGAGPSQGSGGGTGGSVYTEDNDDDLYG

Target: p97 (Homo sapiens (Human), UniProt P55072)
Test: P97 ATPase biochem assay (ADP Glo)
Conditions: read-out: p97 IC50

COCCOc1cccc2c(NCc3ccccc3)nc(-n3c(CNC(C)=O)cc4ccccc43)nc12
IC50: < 300 nM
